Experimental data as given in patent US9193704B2, “Hydantoin derivatives as KV3 inhibitors” (AUTIFONY THERAPEUTICS LIMITED, priority 2011, dated 2015).
Some entries share one result that the patent states for a list of compounds.

Experiment: In vivo pharmacokinetic assay, blood to brain ratio (AUC BB)
Conditions: rat, oral 1 mg/kg

SMILES | AUC BB value relative to Reference Examples 87 and 88 of WO2011/069951A1
CC1(C)NC(=O)N(c2cnc(Oc3ccc4c(c3)C3(CCCC3)OC4)nc2)C1=O [Example 12, 5,5-dimethyl-3-(2-spiro[1H-isobenzofuran-3,1′-cyclopentane]-5-yloxypyrimidin-5-yl)imidazolidine-2,4-dione] | at least 1.7 fold
CC[C@@]1(C)NC(=O)N(c2ccc(Oc3ccc4c(c3)C(C)(C)OC4)nc2)C1=O [Example 33, (5R)-3-[6-[(3,3-dimethyl-1H-isobenzofuran-5-yl)oxy]-3-pyridyl]-5-ethyl-5-methyl-imidazolidine-2,4-dione] | at least 1.7 fold
CC1(C)NC(=O)N(c2ccc(Oc3ccc4c(c3)C3(CCC3)OC4)nc2)C1=O [Example 58, 5,5-dimethyl-3-(6-spiro[1H-isobenzofuran-3,1′-cyclobutane]-5-yloxy-3-pyridyl)imidazolidine-2,4-dione] | at least 1.7 fold
CC1(C)NC(=O)N(c2ccc(Oc3ccc4c(c3)C(C)(C(F)(F)F)OC4)nc2)C1=O (single isomer, unassigned) [Example 52, 5,5-dimethyl-3-[6-[[3-methyl-3-(trifluoromethyl)-1H-isobenzofuran-5-yl]oxy]-3-pyridyl]imidazolidine-2,4-dione] | at least 1.7 fold
CC1(C)NC(=O)N(c2ccc(Oc3ccc4c(c3)C(C(C)(C)C)OC4)nc2)C1=O (single isomer, unassigned) [Example 50, 3-[6-[(3-tert-butyl-1,3-dihydroisobenzofuran-5-yl)oxy]-3-pyridyl]-5,5-dimethyl-imidazolidine-2,4-dione] | at least 1.7 fold
